This is an account of results in PMC11827430.

Protein sequences, listed by entry. Tags and fused reporters are not part of them.
UniProt Q9Y6K9: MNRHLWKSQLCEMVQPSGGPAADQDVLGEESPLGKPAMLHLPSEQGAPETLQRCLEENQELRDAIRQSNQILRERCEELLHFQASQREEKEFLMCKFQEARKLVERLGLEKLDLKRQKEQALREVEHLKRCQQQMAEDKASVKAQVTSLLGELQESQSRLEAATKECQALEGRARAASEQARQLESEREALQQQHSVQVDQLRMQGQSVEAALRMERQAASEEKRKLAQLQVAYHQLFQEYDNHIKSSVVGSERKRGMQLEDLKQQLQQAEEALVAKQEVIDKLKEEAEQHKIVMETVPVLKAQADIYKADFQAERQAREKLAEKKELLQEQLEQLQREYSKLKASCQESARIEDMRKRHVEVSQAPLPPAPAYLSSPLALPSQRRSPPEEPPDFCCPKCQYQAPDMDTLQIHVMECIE
UniProt P42224: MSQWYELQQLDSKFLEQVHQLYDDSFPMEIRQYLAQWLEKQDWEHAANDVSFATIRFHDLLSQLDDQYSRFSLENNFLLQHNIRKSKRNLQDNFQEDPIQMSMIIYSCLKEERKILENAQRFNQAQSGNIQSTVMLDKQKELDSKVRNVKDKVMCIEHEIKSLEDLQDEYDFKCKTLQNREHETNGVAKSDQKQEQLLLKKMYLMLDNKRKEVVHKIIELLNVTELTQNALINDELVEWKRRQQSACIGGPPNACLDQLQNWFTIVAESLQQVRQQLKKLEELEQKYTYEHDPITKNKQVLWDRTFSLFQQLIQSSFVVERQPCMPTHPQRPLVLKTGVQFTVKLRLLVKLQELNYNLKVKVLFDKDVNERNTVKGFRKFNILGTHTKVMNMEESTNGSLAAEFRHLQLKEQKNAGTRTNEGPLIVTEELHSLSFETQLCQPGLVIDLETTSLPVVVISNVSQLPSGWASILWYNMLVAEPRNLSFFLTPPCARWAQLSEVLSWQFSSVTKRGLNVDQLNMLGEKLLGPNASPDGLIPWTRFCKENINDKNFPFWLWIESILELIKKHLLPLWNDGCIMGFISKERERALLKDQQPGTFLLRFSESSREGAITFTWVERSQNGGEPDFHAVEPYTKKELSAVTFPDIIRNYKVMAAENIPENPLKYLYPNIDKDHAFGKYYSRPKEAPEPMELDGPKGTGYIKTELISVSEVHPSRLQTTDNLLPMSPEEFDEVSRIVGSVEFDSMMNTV

These are yes or no findings as the source states them, for the method shown. Binding seen in cells or lysates may run through a third protein. Some entries that bind do so weakly or less than the wild type.

This assay concerns the target T1, deubiquitinating enzyme cylindromatosis (CYLD) (human (endogenous in THP-1)) (UniProt Q9NQC7).
T1 sequence: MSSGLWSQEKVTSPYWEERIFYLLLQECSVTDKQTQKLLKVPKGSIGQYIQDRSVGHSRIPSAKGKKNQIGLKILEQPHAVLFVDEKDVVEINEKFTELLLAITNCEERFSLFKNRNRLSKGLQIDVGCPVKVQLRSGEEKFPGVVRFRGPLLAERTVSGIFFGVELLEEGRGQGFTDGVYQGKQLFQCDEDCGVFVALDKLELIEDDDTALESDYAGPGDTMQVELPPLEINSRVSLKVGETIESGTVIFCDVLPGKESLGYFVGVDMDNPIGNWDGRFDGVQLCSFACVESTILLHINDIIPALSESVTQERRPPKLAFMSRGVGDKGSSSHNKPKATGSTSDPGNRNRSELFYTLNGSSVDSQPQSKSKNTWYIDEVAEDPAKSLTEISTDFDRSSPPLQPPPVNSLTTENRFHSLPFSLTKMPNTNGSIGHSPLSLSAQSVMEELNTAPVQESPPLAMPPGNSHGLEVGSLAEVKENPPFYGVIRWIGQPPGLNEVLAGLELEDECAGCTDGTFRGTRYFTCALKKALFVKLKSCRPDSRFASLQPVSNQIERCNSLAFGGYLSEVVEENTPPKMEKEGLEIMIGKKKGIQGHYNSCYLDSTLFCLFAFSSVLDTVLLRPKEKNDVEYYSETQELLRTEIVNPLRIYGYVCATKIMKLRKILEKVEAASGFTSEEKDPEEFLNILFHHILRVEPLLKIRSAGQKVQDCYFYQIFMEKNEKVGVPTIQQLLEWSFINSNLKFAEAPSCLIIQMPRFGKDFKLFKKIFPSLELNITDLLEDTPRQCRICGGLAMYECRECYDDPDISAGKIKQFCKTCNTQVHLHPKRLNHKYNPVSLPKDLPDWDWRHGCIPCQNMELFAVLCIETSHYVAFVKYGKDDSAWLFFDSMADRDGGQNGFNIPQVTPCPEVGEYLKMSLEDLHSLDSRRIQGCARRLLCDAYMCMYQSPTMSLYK
The experiment in a line: co-IP; immunoprecipitation with anti-CYLD antibody (1:100, 4°C overnight, Gamma Bind G Sepharose beads) from precleared lysates of IFN-γ/LPS-polarized (M1) THP-1 macrophages 2 h after infection with S. aureus MW2 (MOI 5:1); IgG as negative control; detection by Western blot. For orientation: A western blot detects proteins with antibodies after separation by electrophoresis.

Take IKKγ/NEMO (from UniProt Q9Y6K9 1-419): the binding result is “binds”.

With STAT1 (from UniProt P42224 1-750), the binding result is listed as “binds”.
